Screening data

From PubChem BioAssay record AID504749 (NCATS, 2011).

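Malaria parasite (P. falciparum) lines kept in red blood cells; parasite DNA is measured by SYBR Green fluorescence after lysis, 72 h after compound addition.
Each compound was titrated across a series from about 0.000037 to 29 µM.
The number is the fitted AC50, the concentration giving a half-maximal change in signal; a lower value means higher potency, whether the curve shows a decrease or an increase.
Calls follow the curve class and fit quality: every row here is inconclusive, covering signal-raising curves and weak, poorly fitted, partial or highest-dose-only inhibition curves.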

Values are in nM.
All entries here are filed as inconclusive.
Only part of the assay is shown, chiefly results filed as inconclusive.
Potencies fitted to partial, single-point or poorly fitting curves are rough.
Some entries filed as inconclusive have a full curve.

Compound | condition | potency (nM) | remark
c1ccc(C2CN3CCSC3=N2)cc1 (stereo not given) | FAB9 | 17782 | inhibitor, single point
c1ccc(C2CN3CCSC3=N2)cc1 (stereo not given) | CP297 | 13459 | inhibitor, partial curve, poor fit
c1ccc(C2CN3CCSC3=N2)cc1 (stereo not given) | C2A | 10000 | inhibitor, single point
CO[C@]12C[C@@H](COC(=O)c3cncc(Br)c3)CN(C)[C@@H]1Cc1cn(C)c3cccc2c13 | CP237 | 10000 | inhibitor, single point
CO[C@]12C[C@@H](COC(=O)c3cncc(Br)c3)CN(C)[C@@H]1Cc1cn(C)c3cccc2c13 | ATS95 | 11220 | inhibitor, single point
CO[C@]12C[C@@H](COC(=O)c3cncc(Br)c3)CN(C)[C@@H]1Cc1cn(C)c3cccc2c13 | CP305 | 11995 | inhibitor, partial curve, poor fit
CO[C@]12C[C@@H](COC(=O)c3cncc(Br)c3)CN(C)[C@@H]1Cc1cn(C)c3cccc2c13 | ATS189 | 10000 | inhibitor, single point
CO[C@]12C[C@@H](COC(=O)c3cncc(Br)c3)CN(C)[C@@H]1Cc1cn(C)c3cccc2c13 | PC15 | 17782 | inhibitor, single point
CO[C@]12C[C@@H](COC(=O)c3cncc(Br)c3)CN(C)[C@@H]1Cc1cn(C)c3cccc2c13 | parasite line B | 10000 | inhibitor, single point
CO[C@]12C[C@@H](COC(=O)c3cncc(Br)c3)CN(C)[C@@H]1Cc1cn(C)c3cccc2c13 | CP297 | 19011 | inhibitor, single point
CO[C@]12C[C@@H](COC(=O)c3cncc(Br)c3)CN(C)[C@@H]1Cc1cn(C)c3cccc2c13 | CP262 | 16944 | inhibitor, single point
CO[C@]12C[C@@H](COC(=O)c3cncc(Br)c3)CN(C)[C@@H]1Cc1cn(C)c3cccc2c13 | PAD | 10000 | inhibitor, single point
CO[C@]12C[C@@H](COC(=O)c3cncc(Br)c3)CN(C)[C@@H]1Cc1cn(C)c3cccc2c13 | Dd2 | 10000 | inhibitor, single point
CO[C@]12C[C@@H](COC(=O)c3cncc(Br)c3)CN(C)[C@@H]1Cc1cn(C)c3cccc2c13 | ICS | 15848 | inhibitor, single point
CO[C@]12C[C@@H](COC(=O)c3cncc(Br)c3)CN(C)[C@@H]1Cc1cn(C)c3cccc2c13 | AS120 | 11220 | inhibitor, single point
CO[C@]12C[C@@H](COC(=O)c3cncc(Br)c3)CN(C)[C@@H]1Cc1cn(C)c3cccc2c13 | AA1029 | 10000 | inhibitor, single point
Nc1ccc(N)cc1 | CP335 | 2686 | inhibitor, full curve
Nc1ccc(N)cc1 | CP297 | 19011 | inhibitor, single point
Nc1ccc(N)cc1 | CP201 | 19011 | inhibitor, single point
Nc1ccc(N)cc1 | CP217 | 17782 | inhibitor, single point
Nc1ccc(N)cc1 | CP265 | 17782 | inhibitor, single point
Nc1ccc(N)cc1 | C2A | 12589 | inhibitor, partial curve
Nc1ccc(N)cc1 | CP238 | 17782 | inhibitor, single point
Nc1ccc(N)cc1 | CP191 | 12589 | inhibitor, single point
Nc1ccc(N)cc1 | PC26 | 16944 | inhibitor, single point
Nc1ccc(N)cc1 | CP203 | 13459 | inhibitor, single point
Nc1ccc(N)cc1 | ICS | 17782 | inhibitor, single point
Nc1ccc(N)cc1 | ATS95 | 11220 | inhibitor, single point
Nc1ccc(N)cc1 | PC15 | 17782 | inhibitor, single point
Nc1ccc(N)cc1 | CP215 | 19011 | inhibitor, single point
Nc1ccc(N)cc1 | CP291 | 19011 | inhibitor, single point
Nc1ccc(N)cc1 | CP194 | 15101 | inhibitor, single point
Nc1ccc(N)cc1 | CP269 | 19011 | inhibitor, partial curve, poor fit
Nc1ccc(N)cc1 | P94_40 | 10000 | inhibitor, single point
Nc1ccc(N)cc1 | CP256 | 17782 | inhibitor, single point
Nc1ccc(N)cc1 | DIV30 | 425.6 | inhibitor, partial curve, poor fit
Nc1ccc(N)cc1 | P93_24 | 15848 | inhibitor, single point
Nc1ccc(N)cc1 | CP185 | 10000 | inhibitor, single point

The first 4 entries again:

Compound	condition	potency (nM)	remark
c1ccc(C2CN3CCSC3=N2)cc1 (stereo not given)	FAB9	17782	inhibitor, single point
c1ccc(C2CN3CCSC3=N2)cc1 (stereo not given)	CP297	13459	inhibitor, partial curve, poor fit
c1ccc(C2CN3CCSC3=N2)cc1 (stereo not given)	C2A	10000	inhibitor, single point
CO[C@]12C[C@@H](COC(=O)c3cncc(Br)c3)CN(C)[C@@H]1Cc1cn(C)c3cccc2c13	CP237	10000	inhibitor, single point